Reference: the supplement of paper PMC10849652
Some of the results follow.

Amino acid sequences for entries named in this document (tags omitted). A change or cut given only in a name is not applied to a line headed by its entry.
UniProt Q8NE71: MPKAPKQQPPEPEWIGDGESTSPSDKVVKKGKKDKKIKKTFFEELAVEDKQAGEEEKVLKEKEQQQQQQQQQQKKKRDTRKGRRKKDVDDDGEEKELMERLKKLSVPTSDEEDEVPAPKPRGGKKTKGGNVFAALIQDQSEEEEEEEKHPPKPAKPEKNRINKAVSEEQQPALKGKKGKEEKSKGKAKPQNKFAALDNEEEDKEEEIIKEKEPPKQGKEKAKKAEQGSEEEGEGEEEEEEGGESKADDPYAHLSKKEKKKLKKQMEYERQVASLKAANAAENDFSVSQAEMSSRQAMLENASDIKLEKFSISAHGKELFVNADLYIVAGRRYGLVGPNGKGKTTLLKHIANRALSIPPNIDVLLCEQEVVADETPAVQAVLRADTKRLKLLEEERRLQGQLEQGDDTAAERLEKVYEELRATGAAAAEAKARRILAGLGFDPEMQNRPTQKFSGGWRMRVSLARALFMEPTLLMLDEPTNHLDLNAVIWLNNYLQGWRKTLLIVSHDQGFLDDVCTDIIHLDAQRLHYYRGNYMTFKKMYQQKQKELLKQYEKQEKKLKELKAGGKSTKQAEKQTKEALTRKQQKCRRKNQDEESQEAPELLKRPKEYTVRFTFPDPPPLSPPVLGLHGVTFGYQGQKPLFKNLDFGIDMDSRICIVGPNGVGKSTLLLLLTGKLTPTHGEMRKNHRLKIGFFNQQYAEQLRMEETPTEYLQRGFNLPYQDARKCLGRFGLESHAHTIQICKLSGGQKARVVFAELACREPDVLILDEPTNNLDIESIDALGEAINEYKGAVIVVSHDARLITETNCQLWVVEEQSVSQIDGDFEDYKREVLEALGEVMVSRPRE
UniProt O43707, whole entry, looked up: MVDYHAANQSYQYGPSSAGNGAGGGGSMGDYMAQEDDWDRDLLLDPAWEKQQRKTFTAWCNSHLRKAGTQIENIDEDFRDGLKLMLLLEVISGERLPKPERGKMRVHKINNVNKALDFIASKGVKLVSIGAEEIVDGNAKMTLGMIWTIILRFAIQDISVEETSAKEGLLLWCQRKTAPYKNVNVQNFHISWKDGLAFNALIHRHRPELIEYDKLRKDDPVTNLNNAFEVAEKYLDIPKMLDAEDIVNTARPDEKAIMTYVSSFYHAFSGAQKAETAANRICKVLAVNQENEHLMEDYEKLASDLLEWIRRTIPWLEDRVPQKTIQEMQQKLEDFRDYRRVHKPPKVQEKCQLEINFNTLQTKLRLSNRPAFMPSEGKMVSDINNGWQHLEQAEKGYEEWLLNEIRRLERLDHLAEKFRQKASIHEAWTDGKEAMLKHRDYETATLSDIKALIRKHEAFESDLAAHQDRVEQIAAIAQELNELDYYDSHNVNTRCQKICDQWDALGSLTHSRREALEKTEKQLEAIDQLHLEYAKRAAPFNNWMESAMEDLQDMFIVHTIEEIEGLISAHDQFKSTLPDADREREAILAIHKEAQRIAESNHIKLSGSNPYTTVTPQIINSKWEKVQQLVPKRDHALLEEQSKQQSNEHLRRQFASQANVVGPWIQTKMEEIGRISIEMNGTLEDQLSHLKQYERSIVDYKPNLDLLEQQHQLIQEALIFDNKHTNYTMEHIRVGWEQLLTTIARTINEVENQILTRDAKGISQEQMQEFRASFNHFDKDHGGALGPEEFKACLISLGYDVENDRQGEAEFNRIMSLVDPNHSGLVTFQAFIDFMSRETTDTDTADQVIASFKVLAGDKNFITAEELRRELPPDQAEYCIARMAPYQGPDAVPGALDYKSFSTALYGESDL
UniProt Q5JTZ9, whole entry, looked up: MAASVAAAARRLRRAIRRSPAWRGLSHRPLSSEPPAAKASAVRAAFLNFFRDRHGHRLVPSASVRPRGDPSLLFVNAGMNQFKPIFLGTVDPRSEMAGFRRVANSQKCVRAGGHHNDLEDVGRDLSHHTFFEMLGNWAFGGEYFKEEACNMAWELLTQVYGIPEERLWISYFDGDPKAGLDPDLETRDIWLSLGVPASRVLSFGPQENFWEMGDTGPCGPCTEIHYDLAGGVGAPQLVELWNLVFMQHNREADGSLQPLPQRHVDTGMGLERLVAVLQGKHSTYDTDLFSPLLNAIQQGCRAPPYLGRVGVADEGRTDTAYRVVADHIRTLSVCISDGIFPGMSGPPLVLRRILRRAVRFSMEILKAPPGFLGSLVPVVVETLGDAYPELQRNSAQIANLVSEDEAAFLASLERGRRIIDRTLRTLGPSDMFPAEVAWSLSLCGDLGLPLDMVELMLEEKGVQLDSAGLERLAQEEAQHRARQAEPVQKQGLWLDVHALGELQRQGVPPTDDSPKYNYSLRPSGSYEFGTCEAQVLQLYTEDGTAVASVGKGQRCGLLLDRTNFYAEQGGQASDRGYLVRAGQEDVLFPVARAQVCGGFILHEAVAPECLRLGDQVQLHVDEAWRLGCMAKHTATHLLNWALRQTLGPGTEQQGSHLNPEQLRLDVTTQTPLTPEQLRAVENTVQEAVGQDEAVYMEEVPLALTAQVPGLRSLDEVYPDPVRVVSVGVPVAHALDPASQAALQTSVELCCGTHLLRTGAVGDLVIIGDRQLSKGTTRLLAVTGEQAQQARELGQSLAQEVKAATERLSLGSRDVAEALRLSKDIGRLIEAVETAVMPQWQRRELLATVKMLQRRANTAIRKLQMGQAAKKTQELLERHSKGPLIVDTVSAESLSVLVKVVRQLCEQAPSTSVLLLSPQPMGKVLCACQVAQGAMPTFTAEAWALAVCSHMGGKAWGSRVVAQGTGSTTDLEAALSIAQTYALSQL
UniProt P21399: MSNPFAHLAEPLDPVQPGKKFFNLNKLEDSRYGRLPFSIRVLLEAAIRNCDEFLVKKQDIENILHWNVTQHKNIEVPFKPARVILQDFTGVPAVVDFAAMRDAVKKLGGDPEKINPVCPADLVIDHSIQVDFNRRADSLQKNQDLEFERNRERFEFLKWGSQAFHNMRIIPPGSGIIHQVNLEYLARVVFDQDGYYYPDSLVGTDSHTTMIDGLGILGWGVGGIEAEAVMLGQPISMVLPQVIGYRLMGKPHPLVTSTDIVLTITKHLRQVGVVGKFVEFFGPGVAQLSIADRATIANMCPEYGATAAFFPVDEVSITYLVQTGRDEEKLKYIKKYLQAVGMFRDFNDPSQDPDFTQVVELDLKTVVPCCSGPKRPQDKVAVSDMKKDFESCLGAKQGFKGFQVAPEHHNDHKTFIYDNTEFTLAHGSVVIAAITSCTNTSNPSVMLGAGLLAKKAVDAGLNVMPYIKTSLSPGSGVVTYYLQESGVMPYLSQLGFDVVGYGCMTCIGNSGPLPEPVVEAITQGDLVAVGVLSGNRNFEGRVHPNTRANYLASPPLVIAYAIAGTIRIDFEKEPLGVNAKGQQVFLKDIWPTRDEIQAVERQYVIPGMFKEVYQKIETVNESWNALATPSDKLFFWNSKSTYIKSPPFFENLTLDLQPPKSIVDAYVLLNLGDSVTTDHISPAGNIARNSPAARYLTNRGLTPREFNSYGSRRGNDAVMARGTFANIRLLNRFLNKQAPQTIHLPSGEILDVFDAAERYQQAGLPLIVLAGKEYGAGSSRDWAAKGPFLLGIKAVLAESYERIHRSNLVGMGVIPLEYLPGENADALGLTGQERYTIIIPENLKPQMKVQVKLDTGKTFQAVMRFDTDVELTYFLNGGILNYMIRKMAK
UniProt Q9H7C9: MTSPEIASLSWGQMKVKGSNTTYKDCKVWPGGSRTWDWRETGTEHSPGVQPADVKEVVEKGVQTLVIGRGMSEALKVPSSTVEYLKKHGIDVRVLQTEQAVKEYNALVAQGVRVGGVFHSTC
UniProt O00154: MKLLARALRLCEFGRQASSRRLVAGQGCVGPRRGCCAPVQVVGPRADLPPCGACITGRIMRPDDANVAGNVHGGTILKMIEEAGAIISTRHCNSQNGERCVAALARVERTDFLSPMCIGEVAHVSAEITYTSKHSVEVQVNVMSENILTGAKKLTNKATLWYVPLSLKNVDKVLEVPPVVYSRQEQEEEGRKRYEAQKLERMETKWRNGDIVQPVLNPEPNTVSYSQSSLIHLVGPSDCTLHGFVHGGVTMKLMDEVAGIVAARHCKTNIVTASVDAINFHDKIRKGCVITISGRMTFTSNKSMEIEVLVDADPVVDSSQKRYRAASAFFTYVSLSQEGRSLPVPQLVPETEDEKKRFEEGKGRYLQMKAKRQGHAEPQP
UniProt Q9GZN1, whole entry, looked up: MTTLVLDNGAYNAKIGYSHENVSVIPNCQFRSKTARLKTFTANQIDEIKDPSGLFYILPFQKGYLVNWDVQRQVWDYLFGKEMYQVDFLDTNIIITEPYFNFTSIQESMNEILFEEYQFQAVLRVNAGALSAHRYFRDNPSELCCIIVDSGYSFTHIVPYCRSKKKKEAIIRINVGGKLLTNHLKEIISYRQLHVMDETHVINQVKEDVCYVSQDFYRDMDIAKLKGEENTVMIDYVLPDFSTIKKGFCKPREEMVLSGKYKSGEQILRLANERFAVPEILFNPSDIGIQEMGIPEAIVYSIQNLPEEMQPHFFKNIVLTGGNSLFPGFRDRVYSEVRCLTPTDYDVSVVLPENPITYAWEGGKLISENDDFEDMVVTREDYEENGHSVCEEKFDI
UniProt Q6PD74: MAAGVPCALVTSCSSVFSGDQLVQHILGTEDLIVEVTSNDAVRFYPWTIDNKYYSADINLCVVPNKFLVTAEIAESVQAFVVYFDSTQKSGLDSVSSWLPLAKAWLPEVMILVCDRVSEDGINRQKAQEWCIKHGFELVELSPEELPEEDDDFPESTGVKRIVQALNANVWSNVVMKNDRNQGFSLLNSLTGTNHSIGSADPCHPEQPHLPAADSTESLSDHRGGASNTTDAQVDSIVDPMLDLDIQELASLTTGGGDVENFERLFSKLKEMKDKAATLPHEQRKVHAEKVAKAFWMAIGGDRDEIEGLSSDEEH
UniProt Q53FZ2: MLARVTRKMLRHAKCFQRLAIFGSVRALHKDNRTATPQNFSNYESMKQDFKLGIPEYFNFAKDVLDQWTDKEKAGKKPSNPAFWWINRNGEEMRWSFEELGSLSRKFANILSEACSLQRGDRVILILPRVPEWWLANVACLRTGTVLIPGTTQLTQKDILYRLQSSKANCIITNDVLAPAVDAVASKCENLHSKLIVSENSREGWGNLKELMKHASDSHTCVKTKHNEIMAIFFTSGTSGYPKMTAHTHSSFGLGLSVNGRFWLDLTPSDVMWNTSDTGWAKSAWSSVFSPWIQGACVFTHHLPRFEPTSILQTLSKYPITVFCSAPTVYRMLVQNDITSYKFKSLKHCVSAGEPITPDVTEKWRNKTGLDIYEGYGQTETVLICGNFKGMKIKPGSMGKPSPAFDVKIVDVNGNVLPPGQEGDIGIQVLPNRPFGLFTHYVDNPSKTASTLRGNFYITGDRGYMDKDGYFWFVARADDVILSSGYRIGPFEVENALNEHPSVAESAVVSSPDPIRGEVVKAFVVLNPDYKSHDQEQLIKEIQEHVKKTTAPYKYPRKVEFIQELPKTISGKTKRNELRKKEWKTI
UniProt Q9NRN7: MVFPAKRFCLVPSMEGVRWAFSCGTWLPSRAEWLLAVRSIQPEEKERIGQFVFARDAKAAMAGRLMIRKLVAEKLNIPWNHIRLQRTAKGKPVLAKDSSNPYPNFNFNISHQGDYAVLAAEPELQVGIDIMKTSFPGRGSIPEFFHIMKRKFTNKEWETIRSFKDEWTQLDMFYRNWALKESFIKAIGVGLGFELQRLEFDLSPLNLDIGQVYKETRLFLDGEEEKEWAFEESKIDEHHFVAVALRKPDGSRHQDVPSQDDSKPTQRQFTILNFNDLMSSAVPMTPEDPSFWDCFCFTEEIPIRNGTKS
UniProt Q96GS6: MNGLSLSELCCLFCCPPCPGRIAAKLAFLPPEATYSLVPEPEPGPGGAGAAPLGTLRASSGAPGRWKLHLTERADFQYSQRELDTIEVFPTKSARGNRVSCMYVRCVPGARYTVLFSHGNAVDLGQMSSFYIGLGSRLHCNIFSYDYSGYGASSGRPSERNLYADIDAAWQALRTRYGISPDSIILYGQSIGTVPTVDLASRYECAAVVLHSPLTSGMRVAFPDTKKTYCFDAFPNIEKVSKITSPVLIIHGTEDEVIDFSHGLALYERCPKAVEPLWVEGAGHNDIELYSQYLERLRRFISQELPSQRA
UniProt Q9H3P7: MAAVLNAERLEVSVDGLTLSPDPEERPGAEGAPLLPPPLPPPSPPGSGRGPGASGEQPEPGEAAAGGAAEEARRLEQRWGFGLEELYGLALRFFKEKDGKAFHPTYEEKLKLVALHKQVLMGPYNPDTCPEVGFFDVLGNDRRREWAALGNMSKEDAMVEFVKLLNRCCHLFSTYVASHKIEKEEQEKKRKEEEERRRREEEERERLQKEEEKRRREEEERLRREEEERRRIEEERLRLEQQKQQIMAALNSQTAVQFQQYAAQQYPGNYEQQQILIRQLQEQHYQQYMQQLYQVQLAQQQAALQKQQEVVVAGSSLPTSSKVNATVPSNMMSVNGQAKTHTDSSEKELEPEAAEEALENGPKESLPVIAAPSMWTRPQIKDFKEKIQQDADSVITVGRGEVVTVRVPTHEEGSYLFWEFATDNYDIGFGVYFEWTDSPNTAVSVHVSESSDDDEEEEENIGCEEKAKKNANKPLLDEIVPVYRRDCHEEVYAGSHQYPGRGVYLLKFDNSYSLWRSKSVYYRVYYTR

Key:
Assay in all cases: log2 fold change, soluble protein after heating vs DMSO (PISA); higher = thermal stabilisation; K562 cells, 10 uM, 30 min; active = over 0.2 and 3.5 SD of the protein, either way, in both replicates (recomputed)
bafetinib = compound: Cc1ccc(NC(=O)c2ccc(CN3CC[C@H](N(C)C)C3)c(C(F)(F)F)c2)cc1Nc1nccc(-c2cncnc2)n1 [bafetinib]
Summary of the method: (§1)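 K562 cells at 2×10^6 cells/mL were exposed to 10 μM compound for 30 min, then aliquots were heated for 3 min across 48°C-58°C, pooled, and extracted in PBS containing 0.5% NP-40 at 4°C. The supernatant after 21,000xg for 90 min was taken as soluble protein and measured by TMTpro 16plex LC-MS/MS with channel sums equalised. Thermal stability is reported relative to control samples, with values from duplicates. Fold changes are given on a log2 scale.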

[1] = compound: Cc1cccc(CC(=O)N2CCc3c2ccc(-c2cn(C)c4ncnc(N)c24)c3F)n1
Summary of the method: as §1

nilotinib = compound: Cc1cn(-c2cc(NC(=O)c3ccc(C)c(Nc4nccc(-c5cccnc5)n4)c3)cc(C(F)(F)F)c2)cn1 [nilotinib]
Summary of the method: as §1

[2] = compound: Cc1nc(Nc2n[nH]c3c2CN(C(=O)N[C@H](CN(C)C)c2ccccc2)C3(C)C)c2sccc2n1
Summary of the method: as §1

dasatinib = compound: Cc1nc(Nc2ncc(C(=O)Nc3c(C)cccc3Cl)s2)cc(N2CCN(CCO)CC2)n1 [dasatinib]
Summary of the method: as §1

[3] = compound: Cc1ncc(-c2ccnc(Nc3ccc(S(C)(=O)=O)cc3)n2)n1C(C)C
Summary of the method: as §1

[4] = compound: Cn1cc(-c2ccc3c(c2)CCN3C(=O)Cc2cccc(C(F)(F)F)c2)c2c(N)ncnc21
Summary of the method: as §1

[5] = compound: Cn1cc(-c2ccc3nnc(C(F)(F)c4ccc5ncccc5c4)n3n2)cn1
Summary of the method: as §1

tipifarnib = compound: Cn1cncc1[C@@](N)(c1ccc(Cl)cc1)c1ccc2c(c1)c(-c1cccc(Cl)c1)cc(=O)n2C [tipifarnib]
Summary of the method: as §1

mubritinib = compound: FC(F)(F)c1ccc(/C=C/c2nc(COc3ccc(CCCCn4ccnn4)cc3)co2)cc1 [mubritinib]
Summary of the method: as §1

[6] = compound: NC(=O)Nc1cc(-c2cccc(F)c2)sc1C(=O)N[C@H]1CCCNC1
Summary of the method: as §1

[7] = compound: NC(=O)c1cnc(N[C@@H]2CCCC[C@@H]2N)nc1Nc1cccc(-n2nccn2)c1
Summary of the method: as §1

[8] = compound: NC1(c2ccc(-c3nc4ccn5c(=O)[nH]nc5c4cc3-c3ccccc3)cc2)CCC1
Summary of the method: as §1

[9] = compound: NCC(=O)Nc1ccc(-n2nc(C(F)(F)F)cc2-c2ccc3c(ccc4ccccc43)c2)cc1
Summary of the method: as §1

entinostat = compound: Nc1ccccc1NC(=O)c1ccc(CNC(=O)OCc2cccnc2)cc1 [entinostat]
Summary of the method: as §1

vorinostat = compound: O=C(CCCCCCC(=O)Nc1ccccc1)NO [vorinostat]
Summary of the method: as §1

citarinostat = compound: O=C(CCCCCCNC(=O)c1cnc(N(c2ccccc2)c2ccccc2Cl)nc1)NO [citarinostat]
Summary of the method: as §1

silmitasertib = compound: O=C(O)c1ccc2c(c1)nc(Nc1cccc(Cl)c1)c1ccncc12 [silmitasertib]
Summary of the method: as §1

[10] = compound: O=C1NC(=O)C(c2cnc3ccccn23)=C1c1cn2c3c(cc(F)cc13)CN(C(=O)N1CCCCC1)CC2
Summary of the method: as §1

[11] = compound: c1cc(OCCN2CCCCC2)cc(-c2n[nH]c3ccc(-c4nnc[nH]4)cc23)c1
Summary of the method: as §1

Target | log2 fold change (bafetinib) | log2 fold change [1] | log2 fold change (nilotinib) | log2 fold change [2] | log2 fold change (dasatinib) | log2 fold change [3] | log2 fold change [4] | log2 fold change [5] | log2 fold change (tipifarnib) | log2 fold change (mubritinib) | log2 fold change [6] | log2 fold change [7] | log2 fold change [8] | log2 fold change [9] | log2 fold change (entinostat) | log2 fold change (vorinostat) | log2 fold change (citarinostat) | log2 fold change (silmitasertib) | log2 fold change [10] | log2 fold change [11]
ABCF1 (UniProt Q8NE71) | inactive: 0.135 | inactive: -0.072 | inactive: 0.084 | inactive: 0.108 | inactive: 0.022 | inactive: 0.016 | inactive: -0.052 | inactive: -0.114 | inactive: -0.031 | inactive: -0.031 | inactive: -0.013 | inactive: 0.027 | inactive: 0.157 | inactive: 0.065 | inactive: -0.038 | inactive: -0.029 | inactive: -0.048 | inactive: 0.024 | inactive: 0.124 | inactive: -0.146
ACTN4 (UniProt O43707) | inactive: -0.027 | inactive: -0.038 | inactive: 0.014 | inactive: 0.003 | inactive: 0.058 | inactive: 0.005 | inactive: -0.021 | inactive: -0.017 | inactive: 0.011 | inactive: 0.008 | inactive: 0 | inactive: -0.012 | inactive: 0.022 | inactive: -0.018 | inactive: -0.046 | inactive: -0.009 | inactive: -0.027 | inactive: -0.002 | inactive: -0.051 | inactive: -0.007
AARS2 (UniProt Q5JTZ9) | inactive: -0.07 | inactive: 0.011 | inactive: -0.085 | inactive: -0.047 | inactive: -0.184 | inactive: -0.036 | inactive: 0.052 | inactive: 0.05 | inactive: -0.063 | inactive: -0.143 | inactive: -0.029 | inactive: -0.018 | inactive: -0.212 | inactive: -0.086 | inactive: 0.045 | inactive: 0.015 | inactive: 0.037 | inactive: -0.051 | inactive: -0.026 | inactive: 0.06
ACO1 (UniProt P21399) | inactive: -0.004 | inactive: 0.024 | inactive: 0.018 | inactive: -0.02 | inactive: -0.048 | inactive: -0.001 | inactive: 0.028 | inactive: -0.005 | inactive: -0.01 | inactive: -0.05 | inactive: -0.003 | inactive: 0.011 | inactive: -0.055 | inactive: -0.019 | inactive: 0.001 | inactive: 0.004 | inactive: 0.05 | inactive: 0.027 | inactive: -0.032 | inactive: -0.035
AAMDC (UniProt Q9H7C9) | inactive: -0.008 | inactive: -0.003 | inactive: 0.046 | inactive: 0.009 | inactive: 0.056 | inactive: -0.018 | inactive: 0.094 | inactive: 0.122 | inactive: -0.088 | inactive: 0.073 | inactive: 0.027 | inactive: -0.044 | inactive: 0.03 | inactive: -0.045 | inactive: 0.026 | inactive: -0.061 | inactive: 0.044 | inactive: 0.022 | inactive: -0.057 | inactive: -0.037
ACOT7 isoform 7 (UniProt O00154) | inactive: 0.013 | inactive: 0.014 | inactive: 0.031 | inactive: 0.005 | inactive: 0.032 | inactive: -0.01 | inactive: 0.018 | inactive: 0.033 | inactive: -0.023 | inactive: 0.029 | inactive: 0.046 | inactive: 0.008 | inactive: -0.012 | inactive: 0.038 | inactive: -0.014 | inactive: -0.008 | inactive: 0.035 | inactive: -0.047 | inactive: -0.015 | inactive: -0.014
ACTR6 (UniProt Q9GZN1) | inactive: -0.075 | inactive: -0.065 | inactive: -0.045 | inactive: -0.005 | inactive: 0.004 | inactive: 0.006 | inactive: 0.049 | inactive: 0.371 | inactive: -0.025 | inactive: 0.086 | inactive: 0.031 | inactive: -0.059 | inactive: -0.043 | inactive: 0.009 | inactive: 0.035 | inactive: -0.063 | inactive: 0.002 | inactive: 0.142 | inactive: -0.019 | inactive: -0.029
AAGAB (UniProt Q6PD74) | inactive: -0.046 | inactive: 0.016 | inactive: -0.077 | inactive: -0.109 | inactive: -0.161 | inactive: 0.008 | inactive: -0.197 | inactive: -0.121 | inactive: -0.031 | inactive: 0.017 | inactive: -0.071 | inactive: -0.028 | inactive: -0.174 | inactive: -0.011 | inactive: 0.004 | inactive: -0.009 | inactive: 0.024 | inactive: 0.071 | inactive: -0.109 | inactive: -0.158
ABRAXAS2 (UniProt Q15018) | inactive: -0.014 | inactive: 0.025 | inactive: -0.004 | inactive: 0.019 | inactive: 0.063 | inactive: -0.013 | inactive: 0.014 | inactive: 0.005 | inactive: 0.01 | inactive: -0.062 | inactive: 0.026 | inactive: 0.02 | inactive: 0.013 | inactive: -0.011 | inactive: -0.034 | inactive: 0.053 | inactive: 0 | inactive: 0.011 | inactive: -0.092 | inactive: -0.005
ACTR2 (UniProt P61160) | inactive: -0.003 | inactive: -0.042 | inactive: 0.067 | inactive: -0.008 | inactive: 0.082 | inactive: 0.028 | inactive: 0.003 | inactive: -0.014 | inactive: -0.001 | inactive: -0.002 | inactive: -0.003 | inactive: -0.02 | inactive: -0.004 | inactive: -0.022 | inactive: -0.027 | inactive: -0.003 | inactive: -0.003 | inactive: 0.01 | inactive: -0.044 | inactive: 0.004
ACSM3 (UniProt Q53FZ2) | inactive: 0.009 | inactive: -0.061 | inactive: -0.015 | inactive: 0.002 | inactive: -0.185 | inactive: 0.028 | inactive: 0.012 | inactive: 0.128 | inactive: 0.002 | active: -0.343 | inactive: 0.017 | inactive: 0 | inactive: 0.021 | inactive: -0.125 | inactive: 0.009 | inactive: 0.122 | inactive: 0.122 | inactive: 0.06 | inactive: -0.134 | inactive: -0.094
AASDHPPT (UniProt Q9NRN7) | inactive: -0.029 | inactive: -0.008 | inactive: -0.021 | inactive: 0.021 | inactive: -0.044 | inactive: 0.006 | inactive: -0.011 | inactive: -0.035 | inactive: -0.074 | inactive: 0.057 | inactive: -0.017 | inactive: -0.038 | inactive: -0.08 | inactive: -0.034 | inactive: -0.008 | inactive: 0.004 | inactive: 0.062 | inactive: 0.007 | inactive: -0.057 | inactive: -0.016
ABCF2 isoform 2 (UniProt Q9UG63) | inactive: 0.016 | inactive: -0.01 | inactive: 0.048 | inactive: 0.073 | inactive: -0.038 | inactive: 0.017 | inactive: 0.016 | inactive: 0.02 | inactive: -0.049 | inactive: 0.023 | inactive: -0.003 | inactive: -0.049 | inactive: -0.063 | inactive: -0.03 | inactive: -0.026 | inactive: 0.016 | inactive: -0.018 | inactive: -0.006 | inactive: 0.013 | inactive: -0.02
ABHD17A isoform 2 (UniProt Q96GS6) | inactive: -0.051 | inactive: 0.044 | inactive: -0.054 | inactive: 0.047 | inactive: -0.023 | inactive: 0.018 | inactive: 0.028 | inactive: 0.068 | inactive: -0.042 | inactive: 0.061 | inactive: 0.036 | inactive: -0.119 | inactive: -0.049 | inactive: -0.078 | inactive: -0.104 | inactive: -0.04 | inactive: 0.036 | inactive: -0.02 | inactive: 0.01 | inactive: 0.051
ACBD3 (UniProt Q9H3P7) | inactive: 0.05 | inactive: -0.046 | inactive: 0.019 | inactive: -0.011 | inactive: -0.053 | inactive: 0.032 | inactive: 0.062 | inactive: -0.004 | inactive: -0.002 | inactive: 0.06 | inactive: -0.017 | inactive: 0.066 | inactive: -0.016 | inactive: 0.006 | inactive: -0.046 | inactive: 0.007 | inactive: -0.009 | inactive: -0.039 | inactive: -0.046 | inactive: 0.005
ACADSB (UniProt P45954) | inactive: 0.029 | inactive: 0.013 | inactive: 0.08 | inactive: 0.109 | inactive: -0.128 | inactive: 0.013 | inactive: 0.081 | inactive: -0.032 | inactive: -0.011 | inactive: -0.127 | inactive: 0.026 | inactive: 0.031 | inactive: -0.016 | inactive: 0.043 | inactive: -0.045 | inactive: 0.024 | inactive: 0.034 | inactive: 0.025 | inactive: -0.082 | inactive: -0.036

Given with tabs: part of the list above
Target	log2 fold change (bafetinib)	log2 fold change [1]	log2 fold change (nilotinib)	log2 fold change [2]	log2 fold change (dasatinib)	log2 fold change [3]	log2 fold change [4]	log2 fold change [5]	log2 fold change (tipifarnib)	log2 fold change (mubritinib)	log2 fold change [6]	log2 fold change [7]	log2 fold change [8]	log2 fold change [9]	log2 fold change (entinostat)	log2 fold change (vorinostat)	log2 fold change (citarinostat)	log2 fold change (silmitasertib)	log2 fold change [10]	log2 fold change [11]
ABCF2 isoform 2 (UniProt Q9UG63)	inactive: 0.016	inactive: -0.01	inactive: 0.048	inactive: 0.073	inactive: -0.038	inactive: 0.017	inactive: 0.016	inactive: 0.02	inactive: -0.049	inactive: 0.023	inactive: -0.003	inactive: -0.049	inactive: -0.063	inactive: -0.03	inactive: -0.026	inactive: 0.016	inactive: -0.018	inactive: -0.006	inactive: 0.013	inactive: -0.02
ABHD17A isoform 2 (UniProt Q96GS6)	inactive: -0.051	inactive: 0.044	inactive: -0.054	inactive: 0.047	inactive: -0.023	inactive: 0.018	inactive: 0.028	inactive: 0.068	inactive: -0.042	inactive: 0.061	inactive: 0.036	inactive: -0.119	inactive: -0.049	inactive: -0.078	inactive: -0.104	inactive: -0.04	inactive: 0.036	inactive: -0.02	inactive: 0.01	inactive: 0.051
ACBD3 (UniProt Q9H3P7)	inactive: 0.05	inactive: -0.046	inactive: 0.019	inactive: -0.011	inactive: -0.053	inactive: 0.032	inactive: 0.062	inactive: -0.004	inactive: -0.002	inactive: 0.06	inactive: -0.017	inactive: 0.066	inactive: -0.016	inactive: 0.006	inactive: -0.046	inactive: 0.007	inactive: -0.009	inactive: -0.039	inactive: -0.046	inactive: 0.005
